Test results as given in publication PMC12500468.

Protein sequences, listed by entry. Tags and fused reporters are not part of them.
UniProt Q9Y2X7: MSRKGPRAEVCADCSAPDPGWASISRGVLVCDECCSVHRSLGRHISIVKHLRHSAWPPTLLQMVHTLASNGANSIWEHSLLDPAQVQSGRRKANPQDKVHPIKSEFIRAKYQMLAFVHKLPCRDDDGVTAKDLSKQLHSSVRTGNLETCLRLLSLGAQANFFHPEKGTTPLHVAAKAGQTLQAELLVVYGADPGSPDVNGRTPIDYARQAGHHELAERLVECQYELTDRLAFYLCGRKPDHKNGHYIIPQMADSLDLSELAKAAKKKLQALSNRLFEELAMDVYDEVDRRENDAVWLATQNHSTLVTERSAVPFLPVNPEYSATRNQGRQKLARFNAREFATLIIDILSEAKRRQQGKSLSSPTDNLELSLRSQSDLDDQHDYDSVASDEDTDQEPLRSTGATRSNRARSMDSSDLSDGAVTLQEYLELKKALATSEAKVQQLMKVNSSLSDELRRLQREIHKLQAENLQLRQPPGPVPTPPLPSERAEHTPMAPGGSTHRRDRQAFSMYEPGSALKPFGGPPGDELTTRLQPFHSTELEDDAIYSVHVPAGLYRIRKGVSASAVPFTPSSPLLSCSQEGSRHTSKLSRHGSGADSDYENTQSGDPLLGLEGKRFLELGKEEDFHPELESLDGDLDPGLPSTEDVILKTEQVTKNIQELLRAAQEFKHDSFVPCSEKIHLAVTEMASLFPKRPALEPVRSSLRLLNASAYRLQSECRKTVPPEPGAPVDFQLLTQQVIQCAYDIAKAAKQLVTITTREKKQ
UniProt O95817: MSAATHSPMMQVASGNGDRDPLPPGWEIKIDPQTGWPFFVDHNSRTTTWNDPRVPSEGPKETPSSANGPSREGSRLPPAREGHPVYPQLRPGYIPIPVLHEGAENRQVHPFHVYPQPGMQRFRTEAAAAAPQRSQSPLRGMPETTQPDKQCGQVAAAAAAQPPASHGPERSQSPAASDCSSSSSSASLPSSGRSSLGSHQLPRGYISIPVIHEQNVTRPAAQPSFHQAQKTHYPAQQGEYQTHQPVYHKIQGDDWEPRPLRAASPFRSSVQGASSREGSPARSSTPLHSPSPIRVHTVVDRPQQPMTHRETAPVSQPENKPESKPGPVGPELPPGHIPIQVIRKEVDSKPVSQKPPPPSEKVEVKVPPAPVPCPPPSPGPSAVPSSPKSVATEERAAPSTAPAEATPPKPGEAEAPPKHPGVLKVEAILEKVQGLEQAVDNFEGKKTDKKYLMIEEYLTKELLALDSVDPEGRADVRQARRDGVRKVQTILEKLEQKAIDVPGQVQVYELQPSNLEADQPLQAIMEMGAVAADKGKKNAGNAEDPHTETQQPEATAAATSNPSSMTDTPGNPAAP
UniProt O00443: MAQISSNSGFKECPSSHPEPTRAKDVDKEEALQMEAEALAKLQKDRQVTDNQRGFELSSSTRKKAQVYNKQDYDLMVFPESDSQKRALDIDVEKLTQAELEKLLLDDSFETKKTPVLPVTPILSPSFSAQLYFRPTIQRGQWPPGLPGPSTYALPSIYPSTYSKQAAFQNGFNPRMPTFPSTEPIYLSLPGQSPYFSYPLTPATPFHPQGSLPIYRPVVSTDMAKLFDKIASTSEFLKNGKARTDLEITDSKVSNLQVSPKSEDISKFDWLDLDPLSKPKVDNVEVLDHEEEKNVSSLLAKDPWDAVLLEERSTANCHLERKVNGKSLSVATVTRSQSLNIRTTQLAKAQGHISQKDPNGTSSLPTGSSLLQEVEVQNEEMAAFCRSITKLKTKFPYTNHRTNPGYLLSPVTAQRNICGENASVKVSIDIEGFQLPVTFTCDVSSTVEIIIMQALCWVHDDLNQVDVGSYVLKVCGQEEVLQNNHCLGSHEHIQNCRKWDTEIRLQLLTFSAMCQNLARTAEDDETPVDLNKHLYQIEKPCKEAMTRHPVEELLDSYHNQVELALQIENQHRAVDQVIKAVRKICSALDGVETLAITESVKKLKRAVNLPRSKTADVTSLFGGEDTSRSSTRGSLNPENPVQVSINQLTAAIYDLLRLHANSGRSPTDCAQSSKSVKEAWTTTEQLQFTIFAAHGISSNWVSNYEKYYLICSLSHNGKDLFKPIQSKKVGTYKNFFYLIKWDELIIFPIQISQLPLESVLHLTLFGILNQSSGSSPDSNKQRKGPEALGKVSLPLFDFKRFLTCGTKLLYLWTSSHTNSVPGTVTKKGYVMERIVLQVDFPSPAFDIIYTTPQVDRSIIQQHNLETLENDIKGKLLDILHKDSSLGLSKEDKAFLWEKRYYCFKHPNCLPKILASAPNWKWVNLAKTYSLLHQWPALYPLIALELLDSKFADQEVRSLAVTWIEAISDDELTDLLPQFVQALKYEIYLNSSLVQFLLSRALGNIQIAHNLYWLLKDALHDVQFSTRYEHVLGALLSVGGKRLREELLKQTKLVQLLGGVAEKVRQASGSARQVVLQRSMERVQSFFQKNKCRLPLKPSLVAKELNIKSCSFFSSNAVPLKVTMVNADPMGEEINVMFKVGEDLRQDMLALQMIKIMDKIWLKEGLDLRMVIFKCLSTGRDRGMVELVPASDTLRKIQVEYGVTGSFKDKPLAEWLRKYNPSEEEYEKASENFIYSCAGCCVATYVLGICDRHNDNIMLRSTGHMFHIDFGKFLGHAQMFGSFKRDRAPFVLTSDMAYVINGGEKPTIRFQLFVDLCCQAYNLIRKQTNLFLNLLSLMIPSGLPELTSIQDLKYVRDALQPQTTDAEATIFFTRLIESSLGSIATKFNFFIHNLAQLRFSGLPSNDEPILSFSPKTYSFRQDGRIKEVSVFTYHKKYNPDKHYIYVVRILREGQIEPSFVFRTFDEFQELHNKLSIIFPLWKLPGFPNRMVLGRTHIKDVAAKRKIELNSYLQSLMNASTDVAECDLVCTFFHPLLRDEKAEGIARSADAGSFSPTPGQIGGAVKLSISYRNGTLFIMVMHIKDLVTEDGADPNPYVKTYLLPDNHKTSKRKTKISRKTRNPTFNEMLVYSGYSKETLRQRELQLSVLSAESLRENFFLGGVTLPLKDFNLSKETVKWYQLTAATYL
UniProt Q13177: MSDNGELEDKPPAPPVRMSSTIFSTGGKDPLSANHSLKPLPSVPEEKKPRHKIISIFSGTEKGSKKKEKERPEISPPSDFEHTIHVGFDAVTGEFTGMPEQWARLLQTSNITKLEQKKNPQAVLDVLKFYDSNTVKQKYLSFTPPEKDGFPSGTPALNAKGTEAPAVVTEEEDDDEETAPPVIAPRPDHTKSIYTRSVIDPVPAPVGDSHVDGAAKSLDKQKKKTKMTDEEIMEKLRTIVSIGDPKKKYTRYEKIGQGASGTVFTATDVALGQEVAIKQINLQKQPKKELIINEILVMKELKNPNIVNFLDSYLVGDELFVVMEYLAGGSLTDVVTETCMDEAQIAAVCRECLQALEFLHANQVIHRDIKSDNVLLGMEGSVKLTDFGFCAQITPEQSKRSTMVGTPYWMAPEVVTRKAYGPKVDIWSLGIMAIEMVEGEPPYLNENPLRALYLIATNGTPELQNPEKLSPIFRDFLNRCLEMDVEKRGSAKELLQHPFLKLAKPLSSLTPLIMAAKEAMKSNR
UniProt Q9UPU5: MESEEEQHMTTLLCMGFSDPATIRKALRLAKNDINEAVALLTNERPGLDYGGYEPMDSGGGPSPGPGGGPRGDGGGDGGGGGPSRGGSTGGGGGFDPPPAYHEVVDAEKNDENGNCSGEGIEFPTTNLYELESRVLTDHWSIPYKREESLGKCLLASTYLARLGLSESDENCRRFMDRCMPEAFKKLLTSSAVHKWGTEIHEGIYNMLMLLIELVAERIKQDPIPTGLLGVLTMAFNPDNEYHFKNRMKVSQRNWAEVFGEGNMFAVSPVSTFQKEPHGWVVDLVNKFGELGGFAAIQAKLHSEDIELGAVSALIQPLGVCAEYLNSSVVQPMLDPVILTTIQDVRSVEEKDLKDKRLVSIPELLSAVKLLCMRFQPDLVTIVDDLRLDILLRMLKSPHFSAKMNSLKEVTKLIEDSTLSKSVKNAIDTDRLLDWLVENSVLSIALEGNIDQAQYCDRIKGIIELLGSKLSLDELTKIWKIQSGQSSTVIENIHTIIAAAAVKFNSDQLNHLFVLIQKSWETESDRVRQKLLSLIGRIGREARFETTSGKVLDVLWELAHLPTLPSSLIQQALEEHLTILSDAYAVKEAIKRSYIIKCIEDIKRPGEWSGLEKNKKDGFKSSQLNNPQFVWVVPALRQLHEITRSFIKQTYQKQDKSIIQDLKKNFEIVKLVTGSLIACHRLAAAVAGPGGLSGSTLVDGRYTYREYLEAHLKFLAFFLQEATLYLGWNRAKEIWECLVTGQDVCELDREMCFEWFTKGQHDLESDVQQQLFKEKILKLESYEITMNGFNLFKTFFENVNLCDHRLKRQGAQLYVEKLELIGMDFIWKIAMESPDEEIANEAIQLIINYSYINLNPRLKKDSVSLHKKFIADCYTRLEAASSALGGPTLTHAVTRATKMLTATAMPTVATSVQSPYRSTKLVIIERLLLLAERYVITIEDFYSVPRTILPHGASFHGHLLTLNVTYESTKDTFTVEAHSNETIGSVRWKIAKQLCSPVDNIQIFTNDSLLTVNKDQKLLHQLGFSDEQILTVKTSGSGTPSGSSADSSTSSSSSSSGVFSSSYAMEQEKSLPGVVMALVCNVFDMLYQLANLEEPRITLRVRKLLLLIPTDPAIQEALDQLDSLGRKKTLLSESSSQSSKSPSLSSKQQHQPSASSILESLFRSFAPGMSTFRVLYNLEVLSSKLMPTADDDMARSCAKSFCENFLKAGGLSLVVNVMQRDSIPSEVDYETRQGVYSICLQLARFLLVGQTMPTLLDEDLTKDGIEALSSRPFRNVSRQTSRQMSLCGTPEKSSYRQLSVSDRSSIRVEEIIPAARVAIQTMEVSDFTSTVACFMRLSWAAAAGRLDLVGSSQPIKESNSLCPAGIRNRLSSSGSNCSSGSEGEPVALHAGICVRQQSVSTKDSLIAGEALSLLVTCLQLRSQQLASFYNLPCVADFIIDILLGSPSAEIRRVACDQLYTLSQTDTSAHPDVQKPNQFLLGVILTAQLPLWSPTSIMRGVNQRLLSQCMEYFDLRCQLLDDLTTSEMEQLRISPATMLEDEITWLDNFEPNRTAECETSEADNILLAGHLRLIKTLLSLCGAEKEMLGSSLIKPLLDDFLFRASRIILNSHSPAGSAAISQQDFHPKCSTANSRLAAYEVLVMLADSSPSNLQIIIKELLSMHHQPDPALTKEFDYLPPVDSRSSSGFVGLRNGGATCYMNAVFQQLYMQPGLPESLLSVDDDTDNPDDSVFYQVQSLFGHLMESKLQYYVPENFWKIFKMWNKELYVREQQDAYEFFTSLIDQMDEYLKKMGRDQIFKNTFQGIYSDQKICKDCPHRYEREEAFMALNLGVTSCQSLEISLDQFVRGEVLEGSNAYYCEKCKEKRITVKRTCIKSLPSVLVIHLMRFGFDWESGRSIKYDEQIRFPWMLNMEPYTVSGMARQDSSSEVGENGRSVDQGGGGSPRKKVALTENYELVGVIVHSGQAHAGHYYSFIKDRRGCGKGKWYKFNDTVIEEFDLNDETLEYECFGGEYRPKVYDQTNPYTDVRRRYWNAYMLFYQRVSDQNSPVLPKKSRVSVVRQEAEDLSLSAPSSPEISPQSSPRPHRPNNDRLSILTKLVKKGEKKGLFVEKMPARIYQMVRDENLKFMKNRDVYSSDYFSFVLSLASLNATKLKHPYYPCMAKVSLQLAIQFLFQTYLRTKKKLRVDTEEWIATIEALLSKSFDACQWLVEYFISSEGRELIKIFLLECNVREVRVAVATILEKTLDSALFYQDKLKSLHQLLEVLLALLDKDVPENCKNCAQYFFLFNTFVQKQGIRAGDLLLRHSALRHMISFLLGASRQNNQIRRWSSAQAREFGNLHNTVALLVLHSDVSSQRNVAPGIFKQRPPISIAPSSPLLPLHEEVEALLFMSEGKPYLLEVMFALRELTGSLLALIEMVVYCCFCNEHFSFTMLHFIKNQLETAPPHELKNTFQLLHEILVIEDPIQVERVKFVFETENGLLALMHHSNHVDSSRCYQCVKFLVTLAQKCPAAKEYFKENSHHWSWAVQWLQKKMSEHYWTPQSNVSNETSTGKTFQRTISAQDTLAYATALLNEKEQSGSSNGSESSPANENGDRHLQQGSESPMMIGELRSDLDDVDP
UniProt Q9NT62: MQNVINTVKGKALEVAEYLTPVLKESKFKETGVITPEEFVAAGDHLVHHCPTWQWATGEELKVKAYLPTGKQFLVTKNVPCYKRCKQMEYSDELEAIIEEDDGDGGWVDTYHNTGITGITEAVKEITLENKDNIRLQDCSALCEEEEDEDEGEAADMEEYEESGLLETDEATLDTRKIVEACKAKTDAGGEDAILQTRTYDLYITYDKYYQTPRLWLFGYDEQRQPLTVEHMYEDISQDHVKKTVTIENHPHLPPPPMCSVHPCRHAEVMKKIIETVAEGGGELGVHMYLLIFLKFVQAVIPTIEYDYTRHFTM

T1: LZTR1-mini-TurboID-HA (LZTR1 fused to biotin ligase tagged with HA) (UniProt Q8N653)
T1 sequence: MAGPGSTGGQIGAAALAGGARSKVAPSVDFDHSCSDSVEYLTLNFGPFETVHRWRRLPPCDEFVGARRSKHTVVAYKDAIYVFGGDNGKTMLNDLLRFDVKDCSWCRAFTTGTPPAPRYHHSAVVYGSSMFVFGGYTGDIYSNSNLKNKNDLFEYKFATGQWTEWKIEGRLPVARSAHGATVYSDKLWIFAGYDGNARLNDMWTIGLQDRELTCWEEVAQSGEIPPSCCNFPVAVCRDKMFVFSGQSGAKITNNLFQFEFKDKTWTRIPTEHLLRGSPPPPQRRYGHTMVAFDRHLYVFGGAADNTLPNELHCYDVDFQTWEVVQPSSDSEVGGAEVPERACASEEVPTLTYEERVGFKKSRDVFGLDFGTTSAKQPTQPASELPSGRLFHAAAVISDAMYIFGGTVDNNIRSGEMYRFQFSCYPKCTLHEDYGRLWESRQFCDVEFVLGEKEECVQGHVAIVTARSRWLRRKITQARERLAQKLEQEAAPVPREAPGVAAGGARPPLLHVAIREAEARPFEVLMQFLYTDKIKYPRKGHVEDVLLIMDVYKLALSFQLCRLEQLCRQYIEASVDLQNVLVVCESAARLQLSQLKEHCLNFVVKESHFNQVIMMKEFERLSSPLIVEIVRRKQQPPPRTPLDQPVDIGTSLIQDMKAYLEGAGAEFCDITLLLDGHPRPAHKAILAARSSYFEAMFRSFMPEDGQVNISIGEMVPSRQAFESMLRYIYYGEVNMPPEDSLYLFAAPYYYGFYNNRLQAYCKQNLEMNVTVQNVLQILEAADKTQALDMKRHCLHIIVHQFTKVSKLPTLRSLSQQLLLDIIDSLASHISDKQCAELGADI

T2: LZTR1-HA (UniProt Q8N653)
T2 sequence: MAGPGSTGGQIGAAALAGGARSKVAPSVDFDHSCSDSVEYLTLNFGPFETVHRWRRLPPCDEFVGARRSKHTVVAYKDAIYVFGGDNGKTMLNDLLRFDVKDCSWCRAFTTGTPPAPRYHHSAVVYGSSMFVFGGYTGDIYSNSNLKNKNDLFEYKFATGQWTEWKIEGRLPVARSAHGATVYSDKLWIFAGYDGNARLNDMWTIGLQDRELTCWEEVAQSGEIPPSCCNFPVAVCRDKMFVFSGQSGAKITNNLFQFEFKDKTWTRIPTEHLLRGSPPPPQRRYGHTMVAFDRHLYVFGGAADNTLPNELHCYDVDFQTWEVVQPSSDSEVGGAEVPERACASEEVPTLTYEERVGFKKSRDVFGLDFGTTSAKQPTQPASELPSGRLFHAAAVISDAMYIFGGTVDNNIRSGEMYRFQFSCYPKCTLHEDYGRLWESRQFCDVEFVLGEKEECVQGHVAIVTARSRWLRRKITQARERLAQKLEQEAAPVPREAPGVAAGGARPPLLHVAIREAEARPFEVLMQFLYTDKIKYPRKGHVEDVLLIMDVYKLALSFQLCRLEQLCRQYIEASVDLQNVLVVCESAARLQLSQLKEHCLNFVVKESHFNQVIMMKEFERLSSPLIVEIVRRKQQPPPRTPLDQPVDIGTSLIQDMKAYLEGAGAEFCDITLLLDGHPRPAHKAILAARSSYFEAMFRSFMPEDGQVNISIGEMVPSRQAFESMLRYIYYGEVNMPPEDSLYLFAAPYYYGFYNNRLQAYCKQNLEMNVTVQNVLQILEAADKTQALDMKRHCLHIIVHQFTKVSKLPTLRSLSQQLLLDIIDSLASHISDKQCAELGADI


What was measured:
[1] = molecular target: T1, LZTR1-mini-TurboID-HA (LZTR1 fused to biotin ligase tagged with HA); assay: proximity labelling; LZTR1-miniTurbo-HA or GFP-TurboID (control) induced with doxycycline in YUHIMO, YUHEF and YUSIK melanoma cells; biotin 50 uM; streptavidin magnetic beads; in-gel trypsin digestion, LC-MS/MS with label-free quantitation; enriched over control at p < 0.05; three biological replicates
[2] = molecular target: T1, LZTR1-mini-TurboID-HA (LZTR1 fused to biotin ligase tagged with HA); assay: proximity labelling; LZTR1-TurboID or GFP-TurboID in melanoma cells with or without doxycycline; biotin for 24 h or for 2 and 18 h; streptavidin bead-bound proteins and whole cell lysates probed by Western blot
[3] = molecular target: T2, LZTR1-HA; assay: affinity purification with mass spectrometry; LZTR1-HA precipitated from YUHIMO lysates (doxycycline 200 ng/ml, 3 days) with anti-HA magnetic beads overnight in the cold; washed with TBS, 0.1% Tween-20; eluted with HA peptide; LC-MS; uninduced cells as control
[4] = molecular target: T1, LZTR1-mini-TurboID-HA (LZTR1 fused to biotin ligase tagged with HA); assay: proximity labelling; LZTR1-miniTurbo-HA or GFP-TurboID (control) induced with doxycycline in YUHIMO, YUHEF and YUSIK melanoma cells; biotin 50 uM; streptavidin magnetic beads; in-gel trypsin digestion, LC-MS/MS with label-free quantitation; enriched over control at p < 0.05; three biological replicates; remark: listed apart in the source

Molecule | binding [1] | binding [2] | binding [3] | binding [4]
ARF-GTPase-activating protein GIT1 (from UniProt Q9Y2X7 1-761) | binds | binds | – | –
BAG3 (from UniProt O95817 1-575) | – | – | binds | –
myosin IIa (MYH9) (from UniProt P35579 1-1960) | – | – | binds | –
NEDD4 (E3 ubiquitin ligase) (from UniProt P46934 1-1319) | binds | binds | – | –
phosphatidylinositol-4-phosphate 3-kinase catalytic subunit type 2 alpha (PIK3C2A) (from UniProt O00443 1-1686) | – | binds | – | –
BIRC6 (ubiquitin conjugating enzyme) (from UniProt Q9NR09 1-4857) | binds | binds | – | –
PSMD2 (proteasome 26S subunit ubiquitin receptor, non-ATPase 2) (from UniProt Q13200 1-908) | – | – | binds | –
p21 (RAC1) activated kinase 2 PAK2 (from UniProt Q13177 1-524) | binds | binds | – | –
VCPIP1 (Valosin Containing Protein Interacting Protein 1) (protein, UniProt Q96JH7 1-1222) MSQPPPPPPPLPPPPPPPEAPQTPSSLASAAASGGLLKRRDRRILSGSCPDPKCQARLFFPASGSVSIECTECGQRHEQQQLLGVEEVTDPDVVLHNLLRNALLGVTGAPKKNTELVKVMGLSNYHCKLLSPILARYGMDKQTGRAKLLRDMNQGELFDCALLGDRAFLIEPEHVNTVGYGKDRSGSLLYLHDTLEDIKRANKSQECLIPVHVDGDGHCLVHAVSRALVGRELFWHALRENLKQHFQQHLARYQALFHDFIDAAEWEDIINECDPLFVPPEGVPLGLRNIHIFGLANVLHRPIILLDSLSGMRSSGDYSATFLPGLIPAEKCTGKDGHLNKPICIAWSSSGRNHYIPLVGIKGAALPKLPMNLLPKAWGVPQDLIKKYIKLEEDGGCVIGGDRSLQDKYLLRLVAAMEEVFMDKHGIHPSLVADVHQYFYRRTGVIGVQPEEVTAAAKKAVMDNRLHKCLLCGALSELHVPPEWLAPGGKLYNLAKSTHGQLRTDKNYSFPLNNLVCSYDSVKDVLVPDYGMSNLTACNWCHGTSVRKVRGDGSIVYLDGDRTNSRSTGGKCGCGFKHFWDGKEYDNLPEAFPITLEWGGRVVRETVYWFQYESDSSLNSNVYDVAMKLVTKHFPGEFGSEILVQKVVHTILHQTAKKNPDDYTPVNIDGAHAQRVGDVQGQESESQLPTKIILTGQKTKTLHKEELNMSKTERTIQQNITEQASVMQKRKTEKLKQEQKGQPRTVSPSTIRDGPSSAPATPTKAPYSPTTSKEKKIRITTNDGRQSMVTLKSSTTFFELQESIAREFNIPPYLQCIRYGFPPKELMPPQAGMEKEPVPLQHGDRITIEILKSKAEGGQSAAAHSAHTVKQEDIAVTGKLSSKELQEQAEKEMYSLCLLATLMGEDVWSYAKGLPHMFQQGGVFYSIMKKTMGMADGKHCTFPHLPGKTFVYNASEDRLELCVDAAGHFPIGPDVEDLVKEAVSQVRAEATTRSRESSPSHGLLKLGSGGVVKKKSEQLHNVTAFQGKGHSLGTASGNPHLDPRARETSVVRKHNTGTDFSNSSTKTEPSVFTASSSNSELIRIAPGVVTMRDGRQLDPDLVEAQRKKLQEMVSSIQASMDRHLRDQSTEQSPSDLPQRKTEVVSSSAKSGSLQTGLPESFPLTGGTENLNTETTDGCVADALGAAFATRSKAQRGNSVEELEEMDSQDAEMTNTTEPMDHS | – | – | – | binds
TRIM24 (protein, UniProt O15164 1-1050) MEVAVEKAVAAAAAASAAASGGPSAAPSGENEAESRQGPDSERGGEAARLNLLDTCAVCHQNIQSRAPKLLPCLHSFCQRCLPAPQRYLMLPAPMLGSAETPPPVPAPGSPVSGSSPFATQVGVIRCPVCSQECAERHIIDNFFVKDTTEVPSSTVEKSNQVCTSCEDNAEANGFCVECVEWLCKTCIRAHQRVKFTKDHTVRQKEEVSPEAVGVTSQRPVFCPFHKKEQLKLYCETCDKLTCRDCQLLEHKEHRYQFIEEAFQNQKVIIDTLITKLMEKTKYIKFTGNQIQNRIIEVNQNQKQVEQDIKVAIFTLMVEINKKGKALLHQLESLAKDHRMKLMQQQQEVAGLSKQLEHVMHFSKWAVSSGSSTALLYSKRLITYRLRHLLRARCDASPVTNNTIQFHCDPSFWAQNIINLGSLVIEDKESQPQMPKQNPVVEQNSQPPSGLSSNQLSKFPTQISLAQLRLQHMQQQVMAQRQQVQRRPAPVGLPNPRMQGPIQQPSISHQQPPPRLINFQNHSPKPNGPVLPPHPQQLRYPPNQNIPRQAIKPNPLQMAFLAQQAIKQWQISSGQGTPSTTNSTSSTPSSPTITSAAGYDGKAFGSPMIDLSSPVGGSYNLPSLPDIDCSSTIMLDNIVRKDTNIDHGQPRPPSNRTVQSPNSSVPSPGLAGPVTMTSVHPPIRSPSASSVGSRGSSGSSSKPAGADSTHKVPVVMLEPIRIKQENSGPPENYDFPVVIVKQESDEESRPQNANYPRSILTSLLLNSSQSSTSEETVLRSDAPDSTGDQPGLHQDNSSNGKSEWLDPSQKSPLHVGETRKEDDPNEDWCAVCQNGGELLCCEKCPKVFHLSCHVPTLTNFPSGEWICTFCRDLSKPEVEYDCDAPSHNSEKKKTEGLVKLTPIDKRKCERLLLFLYCHEMSLAFQDPVPLTVPDYYKIIKNPMDLSTIKKRLQEDYSMYSKPEDFVADFRLIFQNCAEFNEPDSEVANAGIKLENYFEELLKNLYPEKRFPKPEFRNESEDNKFSDDSDDDFVQPRKKRLKSIEERQLLK | – | – | – | binds
Ubiquitin-Specific Protease USP15 (protein, UniProt Q9Y4E8 1-981) MAEGGAADLDTQRSDIATLLKTSLRKGDTWYLVDSRWFKQWKKYVGFDSWDKYQMGDQNVYPGPIDNSGLLKDGDAQSLKEHLIDELDYILLPTEGWNKLVSWYTLMEGQEPIARKVVEQGMFVKHCKVEVYLTELKLCENGNMNNVVTRRFSKADTIDTIEKEIRKIFSIPDEKETRLWNKYMSNTFEPLNKPDSTIQDAGLYQGQVLVIEQKNEDGTWPRGPSTPKSPGASNFSTLPKISPSSLSNNYNNMNNRNVKNSNYCLPSYTAYKNYDYSEPGRNNEQPGLCGLSNLGNTCFMNSAIQCLSNTPPLTEYFLNDKYQEELNFDNPLGMRGEIAKSYAELIKQMWSGKFSYVTPRAFKTQVGRFAPQFSGYQQQDCQELLAFLLDGLHEDLNRIRKKPYIQLKDADGRPDKVVAEEAWENHLKRNDSIIVDIFHGLFKSTLVCPECAKISVTFDPFCYLTLPLPMKKERTLEVYLVRMDPLTKPMQYKVVVPKIGNILDLCTALSALSGIPADKMIVTDIYNHRFHRIFAMDENLSSIMERDDIYVFEININRTEDTEHVIIPVCLREKFRHSSYTHHTGSSLFGQPFLMAVPRNNTEDKLYNLLLLRMCRYVKISTETEETEGSLHCCKDQNINGNGPNGIHEEGSPSEMETDEPDDESSQDQELPSENENSQSEDSVGGDNDSENGLCTEDTCKGQLTGHKKRLFTFQFNNLGNTDINYIKDDTRHIRFDDRQLRLDERSFLALDWDPDLKKRYFDENAAEDFEKHESVEYKPPKKPFVKLKDCIELFTTKEKLGAEDPWYCPNCKEHQQATKKLDLWSLPPVLVVHLKRFSYSRYMRDKLDTLVDFPINDLDMSEFLINPNAGPCRYNLIAVSNHYGGMGGGHYTAFAKNKDDGKWYYFDDSSVSTASEDQIVSKAAYVLFYQRQDTFSGTGFFPLDRETKGASAATGIPLESDEDSNDNDNDIENENCMHTN | – | – | – | binds

The next lines start with the values.

binding [1] | binding [2] | binding [3] | binding [4] | Molecule
binds | – | – | – | Ubiquitin-Specific Protease USP24 (from UniProt Q9UPU5 1-2620)
– | – | binds | – | BAG6 (from UniProt P46379 1-1132)
– | binds | – | – | USP9X (from UniProt Q93008 1-2554)
binds | binds | – | – | ATG3 (E2 ubiquitin-like conjugating enzyme) (from UniProt Q9NT62 1-314)
– | – | binds | – | CUL4B (from UniProt Q13620 1-913)
binds | binds | binds | – | sequestosome 1 (SQSTM1/p62) (from UniProt Q13501 1-440)

Results are given in words; binding and its absence hold for the method and conditions named. In cells and extracts the contact can be indirect. A yes stands for co-enrichment or nearness to the bait. Other partners may have been found. Sequences can lack the tags named with a protein.
